The assay concerns the target Recombinant human GST-Grk2 (human) (UniProt P25098). Nature of the assay: pull-down; 5 pmol P-Rex1 or P-Rex2 protein (2.5 pmol for P-Rex1 mutants) with 5 pmol GST, GST-Grk2 or GST-Grk5 in 20 μL detergent-free buffer (50 mM HEPES pH 7.2, 150 mM NaCl), 1 h on ice; GST proteins isolated on magnetic glutathione agarose, 45 min at 4°C, 4 washes in lysis buffer 2 (1% NP-40); western blot with P-Rex1 or P-Rex2 and GST antibodies; both purified.

Chains of the proteins cited; added tags and fusions are not shown. Lines headed by an entry give the natural chain unless they say otherwise; changes in a name come on top.
UniProt P25098: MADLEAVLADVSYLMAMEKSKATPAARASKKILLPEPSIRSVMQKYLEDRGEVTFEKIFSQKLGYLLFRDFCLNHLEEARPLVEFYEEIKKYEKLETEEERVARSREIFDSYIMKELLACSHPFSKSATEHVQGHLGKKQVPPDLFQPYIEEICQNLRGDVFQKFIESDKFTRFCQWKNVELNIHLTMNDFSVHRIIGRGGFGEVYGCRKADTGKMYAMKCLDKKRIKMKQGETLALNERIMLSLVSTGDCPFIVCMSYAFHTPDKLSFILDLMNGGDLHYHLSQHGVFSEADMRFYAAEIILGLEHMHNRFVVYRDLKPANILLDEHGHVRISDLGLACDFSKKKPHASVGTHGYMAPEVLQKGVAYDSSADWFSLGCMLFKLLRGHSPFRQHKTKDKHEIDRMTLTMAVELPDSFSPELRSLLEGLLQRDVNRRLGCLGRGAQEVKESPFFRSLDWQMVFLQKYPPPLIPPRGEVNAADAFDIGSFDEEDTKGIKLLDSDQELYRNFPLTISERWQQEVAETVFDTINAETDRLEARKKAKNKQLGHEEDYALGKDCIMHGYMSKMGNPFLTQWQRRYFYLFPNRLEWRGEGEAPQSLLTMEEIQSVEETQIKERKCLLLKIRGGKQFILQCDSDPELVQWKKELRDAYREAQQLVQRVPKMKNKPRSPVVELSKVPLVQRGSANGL
UniProt Q8TCU6: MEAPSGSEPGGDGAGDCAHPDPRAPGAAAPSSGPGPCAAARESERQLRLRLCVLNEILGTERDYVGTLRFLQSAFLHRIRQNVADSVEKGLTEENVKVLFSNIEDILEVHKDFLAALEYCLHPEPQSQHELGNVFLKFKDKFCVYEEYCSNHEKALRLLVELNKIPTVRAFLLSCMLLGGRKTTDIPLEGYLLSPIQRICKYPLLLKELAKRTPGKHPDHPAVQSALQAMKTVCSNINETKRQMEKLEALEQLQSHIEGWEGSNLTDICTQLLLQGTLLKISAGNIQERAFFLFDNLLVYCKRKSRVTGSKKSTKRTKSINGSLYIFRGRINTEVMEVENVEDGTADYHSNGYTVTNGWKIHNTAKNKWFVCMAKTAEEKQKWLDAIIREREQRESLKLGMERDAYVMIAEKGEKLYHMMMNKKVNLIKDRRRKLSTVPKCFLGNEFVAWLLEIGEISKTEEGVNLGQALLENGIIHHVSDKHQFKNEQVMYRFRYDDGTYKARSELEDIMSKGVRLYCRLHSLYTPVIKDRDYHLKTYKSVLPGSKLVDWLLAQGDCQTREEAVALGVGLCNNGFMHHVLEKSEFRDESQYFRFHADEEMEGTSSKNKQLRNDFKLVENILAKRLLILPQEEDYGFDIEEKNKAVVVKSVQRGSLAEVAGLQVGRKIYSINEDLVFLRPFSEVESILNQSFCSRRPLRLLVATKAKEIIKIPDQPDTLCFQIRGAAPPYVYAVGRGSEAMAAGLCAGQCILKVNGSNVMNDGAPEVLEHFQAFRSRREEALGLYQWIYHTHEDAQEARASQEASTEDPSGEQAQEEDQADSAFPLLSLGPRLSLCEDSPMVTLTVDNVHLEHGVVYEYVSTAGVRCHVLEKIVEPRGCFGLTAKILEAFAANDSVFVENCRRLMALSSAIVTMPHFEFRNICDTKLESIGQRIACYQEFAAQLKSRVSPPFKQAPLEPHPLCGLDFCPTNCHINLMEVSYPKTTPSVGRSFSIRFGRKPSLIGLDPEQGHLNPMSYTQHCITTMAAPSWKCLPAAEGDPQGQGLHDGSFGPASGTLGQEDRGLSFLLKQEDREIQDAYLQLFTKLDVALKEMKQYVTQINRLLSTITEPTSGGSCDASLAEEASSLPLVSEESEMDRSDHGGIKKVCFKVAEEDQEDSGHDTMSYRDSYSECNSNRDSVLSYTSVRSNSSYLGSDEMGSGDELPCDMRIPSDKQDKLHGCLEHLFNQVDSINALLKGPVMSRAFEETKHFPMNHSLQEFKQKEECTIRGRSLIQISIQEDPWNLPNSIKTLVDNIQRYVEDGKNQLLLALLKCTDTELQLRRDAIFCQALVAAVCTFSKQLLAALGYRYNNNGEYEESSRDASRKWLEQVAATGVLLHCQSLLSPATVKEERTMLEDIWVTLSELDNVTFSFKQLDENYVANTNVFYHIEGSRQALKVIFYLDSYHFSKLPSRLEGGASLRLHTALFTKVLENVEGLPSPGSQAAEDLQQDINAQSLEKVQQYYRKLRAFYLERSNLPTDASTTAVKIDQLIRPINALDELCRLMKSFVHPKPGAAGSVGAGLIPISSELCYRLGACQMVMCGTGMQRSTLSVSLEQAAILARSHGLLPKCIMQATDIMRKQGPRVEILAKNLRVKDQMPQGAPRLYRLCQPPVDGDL

No constants are given. Whether binding was seen depends on the method and setting. Binding calls can cover weak binding; strength is not graded here.

In the case of EE-P-Rex1 ΔPDZ (from UniProt Q8TCU6), the binding entry was “binds”. The same measure for EE-P-Rex1 ΔPH (from UniProt Q8TCU6): “binds”.

The record behind these values is PMC12569377, “P-Rex1 limits the agonist-induced internalization of GPCRs independently of its Rac-GEF activity” (Cell Reports, 2025).
